Measurements from “University of Dundee, Small-Polar-MMV Screening Library” (2021), ChEMBL document CHEMBL3988442.

The chains behind the UniProt entries cited, without tags or fusion partners. Residues count along the entry.
UniProt P9WFT3, whole entry: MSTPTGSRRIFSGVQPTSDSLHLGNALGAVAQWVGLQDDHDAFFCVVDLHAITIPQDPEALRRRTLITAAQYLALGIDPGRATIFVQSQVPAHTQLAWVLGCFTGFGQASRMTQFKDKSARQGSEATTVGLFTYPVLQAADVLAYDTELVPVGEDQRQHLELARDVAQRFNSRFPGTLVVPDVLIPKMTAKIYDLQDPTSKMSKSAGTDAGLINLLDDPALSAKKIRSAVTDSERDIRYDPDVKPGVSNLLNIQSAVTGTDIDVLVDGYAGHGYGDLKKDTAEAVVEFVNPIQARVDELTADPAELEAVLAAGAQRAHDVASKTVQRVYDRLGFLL
UniProt P9WPC5, whole entry: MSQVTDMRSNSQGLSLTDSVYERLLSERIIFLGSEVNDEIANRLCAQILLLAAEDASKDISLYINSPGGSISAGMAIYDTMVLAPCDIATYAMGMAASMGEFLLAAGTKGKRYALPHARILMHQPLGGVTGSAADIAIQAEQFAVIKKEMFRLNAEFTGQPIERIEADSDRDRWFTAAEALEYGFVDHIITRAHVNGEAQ
UniProt P9WPC3, whole entry partner: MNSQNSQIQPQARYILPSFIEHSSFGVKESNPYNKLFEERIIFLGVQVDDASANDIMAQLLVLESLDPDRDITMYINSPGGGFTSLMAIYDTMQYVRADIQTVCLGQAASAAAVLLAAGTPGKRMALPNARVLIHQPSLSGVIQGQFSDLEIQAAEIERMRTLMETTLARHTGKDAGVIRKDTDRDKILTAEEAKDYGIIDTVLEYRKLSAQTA
UniProt I6X8D2, whole entry: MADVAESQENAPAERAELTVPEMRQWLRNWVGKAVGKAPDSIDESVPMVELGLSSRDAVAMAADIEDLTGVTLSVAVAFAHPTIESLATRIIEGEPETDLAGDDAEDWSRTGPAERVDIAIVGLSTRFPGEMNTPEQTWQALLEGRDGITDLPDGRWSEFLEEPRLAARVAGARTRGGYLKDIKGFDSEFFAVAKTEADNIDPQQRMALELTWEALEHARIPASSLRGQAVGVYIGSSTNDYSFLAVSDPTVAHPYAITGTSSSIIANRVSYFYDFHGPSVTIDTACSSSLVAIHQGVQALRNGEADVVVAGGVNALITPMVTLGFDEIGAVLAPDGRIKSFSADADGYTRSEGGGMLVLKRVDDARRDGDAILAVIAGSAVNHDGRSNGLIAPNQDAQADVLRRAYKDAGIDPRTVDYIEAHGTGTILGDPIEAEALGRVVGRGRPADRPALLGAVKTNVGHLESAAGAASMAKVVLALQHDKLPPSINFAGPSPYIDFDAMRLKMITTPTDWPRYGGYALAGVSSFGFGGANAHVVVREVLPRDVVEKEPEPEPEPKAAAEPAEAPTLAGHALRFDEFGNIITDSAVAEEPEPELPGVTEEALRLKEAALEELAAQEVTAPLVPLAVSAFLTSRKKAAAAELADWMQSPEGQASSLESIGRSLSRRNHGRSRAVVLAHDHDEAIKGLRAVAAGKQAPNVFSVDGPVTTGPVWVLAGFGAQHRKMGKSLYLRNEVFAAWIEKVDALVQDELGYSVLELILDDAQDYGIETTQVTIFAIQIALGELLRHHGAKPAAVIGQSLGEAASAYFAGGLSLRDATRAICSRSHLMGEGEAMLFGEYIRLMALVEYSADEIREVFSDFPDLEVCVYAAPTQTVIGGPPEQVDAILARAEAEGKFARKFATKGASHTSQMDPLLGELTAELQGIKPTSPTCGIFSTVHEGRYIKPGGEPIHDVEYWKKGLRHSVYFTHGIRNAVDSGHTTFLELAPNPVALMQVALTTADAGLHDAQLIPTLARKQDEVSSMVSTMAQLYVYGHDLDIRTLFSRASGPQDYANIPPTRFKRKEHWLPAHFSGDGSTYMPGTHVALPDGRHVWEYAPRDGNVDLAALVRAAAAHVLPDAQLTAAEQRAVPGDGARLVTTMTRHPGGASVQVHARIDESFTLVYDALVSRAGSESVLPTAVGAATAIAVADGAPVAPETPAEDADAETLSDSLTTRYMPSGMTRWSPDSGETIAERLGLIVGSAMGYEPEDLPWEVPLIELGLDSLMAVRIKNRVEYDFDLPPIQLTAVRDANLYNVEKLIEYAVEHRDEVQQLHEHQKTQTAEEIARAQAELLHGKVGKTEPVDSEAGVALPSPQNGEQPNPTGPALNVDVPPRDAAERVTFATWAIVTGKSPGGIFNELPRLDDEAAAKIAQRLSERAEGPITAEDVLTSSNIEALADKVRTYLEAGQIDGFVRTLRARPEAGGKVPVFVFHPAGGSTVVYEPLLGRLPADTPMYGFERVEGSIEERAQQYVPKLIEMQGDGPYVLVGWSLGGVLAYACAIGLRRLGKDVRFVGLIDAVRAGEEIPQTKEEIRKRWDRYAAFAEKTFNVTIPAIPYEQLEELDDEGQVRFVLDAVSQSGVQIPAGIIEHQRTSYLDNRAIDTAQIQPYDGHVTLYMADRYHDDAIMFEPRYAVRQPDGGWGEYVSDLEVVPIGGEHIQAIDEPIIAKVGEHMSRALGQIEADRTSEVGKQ
UniProt Q8IDJ8, 1-583: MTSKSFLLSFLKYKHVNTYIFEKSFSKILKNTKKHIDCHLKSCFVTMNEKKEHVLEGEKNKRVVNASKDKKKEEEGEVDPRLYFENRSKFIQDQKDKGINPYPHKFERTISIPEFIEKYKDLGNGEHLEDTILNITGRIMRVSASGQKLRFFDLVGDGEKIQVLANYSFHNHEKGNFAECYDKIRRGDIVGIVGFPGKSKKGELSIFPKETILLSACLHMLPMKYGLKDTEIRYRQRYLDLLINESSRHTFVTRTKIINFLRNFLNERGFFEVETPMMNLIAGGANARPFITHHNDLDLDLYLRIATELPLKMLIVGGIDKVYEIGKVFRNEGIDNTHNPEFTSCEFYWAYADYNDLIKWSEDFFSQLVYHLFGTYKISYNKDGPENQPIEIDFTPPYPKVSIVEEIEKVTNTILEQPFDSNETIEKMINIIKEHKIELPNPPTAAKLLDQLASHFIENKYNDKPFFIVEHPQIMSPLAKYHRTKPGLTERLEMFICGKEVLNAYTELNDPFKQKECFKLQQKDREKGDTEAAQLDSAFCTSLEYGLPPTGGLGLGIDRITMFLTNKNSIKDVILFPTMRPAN

Each number is a percent effect as filed. The record does not define 0% and 100%; most values in the screen are far below 50% and negative numbers occur (in some assays of this library far below -100). Compounds were drawn at random from those tested, without regard to their results. A dash means the value is not listed here; it may have been measured.

MtTrpRS: 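Enzyme assay of tryptophanyl-tRNA synthetase; the read-out is not stated. Target: Tryptophan-tRNA ligase, Mycobacterium tuberculosis (UniProt P9WFT3). Concentration: 10 µM. Higher most likely means stronger inhibition; the record gives no direction and few retests gave an IC50. Of about 65,000 compounds tested this way, about 64 (0.098%) reached 50% or more in at least one test.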
ClpP1P2: 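Protease assay of ClpP1P2, read by the AMC dye that it sets free. Target: ClpP1P2, Mycobacterium tuberculosis (UniProt P9WPC5 and UniProt P9WPC3). Tested at 50 µM. Higher reads as stronger inhibition, judged from the few compounds that gave an IC50. Most other retested compounds had strongly negative values. About 69,000 compounds were tested under these conditions; 0.015% (about 10) showed 50% or more at least once.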
Pks13 thioesterase: 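Enzyme assay of the thioesterase domain of polyketide synthase 13; the read-out is not stated. Target: Polyketide synthase Pks13, Mycobacterium tuberculosis (UniProt I6X8D2). Tested at 30 µM. The record gives no direction; the compounds picked for IC50 retests had high values, so higher reads as stronger inhibition. Size under these conditions: about 67,000 compounds, about 300 of them at 50% or above in at least one test.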
PfKRS1: 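Enzyme assay of the cytosolic lysyl-tRNA synthetase in 384-well plates, read by luminescence. Target: Lysine-tRNA ligase, Plasmodium falciparum 3D7 (UniProt Q8IDJ8). Tested at 30 µM. Direction is inferred from only a few compounds that gave an IC50; most scored high, so higher reads as stronger inhibition. About 69,000 compounds were tested under these conditions; 0.071% (about 49) showed 50% or more at least once.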

Compound	MtTrpRS	ClpP1P2	Pks13 thioesterase	PfKRS1
CN1C[C@H]2CNC[C@@]2(C(=O)NC2CCN(c3ncccc3C#N)CC2)C1	-4.509%	-14.69%	6.086%	3.817%
CCc1c(C)nn(CC(=O)NC(C(=O)O)c2c(C)n[nH]c2C)c1C (stereo unspecified)	-0.6224%	-2.671%	1.832%	0.7757%
COCCCn1ccc(NC(=O)NCCCNc2ccccc2)n1	-3.028%	-6.205%	-9.647%	3.078%
CC1CCCCN1CCNC(=O)c1scnc1Cl (stereo unspecified)	-4.537%	-3.86%	-11.47%	0.1455%
Cc1ncc(CN(C)CC(O)c2ccc(OC(F)(F)F)cc2)s1 (stereo unspecified)	-0.1679%	-6.433%	-6.743%	5.221%
CS(=O)(=O)NCC1(c2ccccc2Br)CC1	20.37%	-3.485%	-12.35%	5.128%
O=C(c1cccnc1)N1CCN2C[C@H](Oc3cncnc3)C[C@H]2C1	-0.4647%	-2.75%	-16.98%	0.7908%
CCc1cc(C(=O)N2CCC(O)(Cn3ccc4ccncc43)CC2)no1	-	-3.179%	-20.05%	-0.09888%
CCN1CCC(NC(=O)CN2CCc3c(nc(C4CC4)n3C)C2)CC1	-2.798%	-2.012%	-2.456%	-0.4058%
FC(F)(F)c1cc(C2CCCN(c3cnccn3)C2)n2ccnc2n1 (stereo unspecified)	-6.662%	-78.89%	4.69%	0.6282%
Cc1ccccc1NC(=O)N1CC[C@@H]2CN(C)S(=O)(=O)[C@@H]2CC1	7.357%	-10.32%	-7.082%	2.822%
O=C(O)CSc1nnc(-c2ccn[nH]2)n1-c1cccc(C(F)(F)F)c1	-2.52%	-6.863%	-0.2233%	5.631%
CCc1nc(C)cn1C(=O)Nc1ccc(F)cc1	-	4.779%	4.901%	1.542%
Cc1ccccc1N1CC(c2nnc(N)s2)CC1=O (stereo unspecified)	5.474%	-14.38%	4.955%	1.491%
CN(C1CCCN(c2ccccn2)C1)S(C)(=O)=O (stereo unspecified)	-5.943%	-15.71%	-1.244%	0.04268%
COCCNC(=O)Cn1cc2c(n1)c(C)nn2C(C)C	8.091%	-2.137%	-10.08%	0.9381%
CN(CCN1CCOC1=O)CC(=O)Nc1ccc(Cl)c(C(F)(F)F)c1	1.331%	5.444%	-29.58%	4.582%
Cc1cnc(N2CC(C(=O)N3CCOCC3)C3(CCOCC3)C2)nc1 (stereo unspecified)	-2.891%	0.01217%	-6.053%	0.1049%
COc1ccccc1C(=O)N1CC2(COC(C)(C)OC2)C1	-3.875%	-0.9708%	1.718%	-0.464%
Cc1ccc(C(=O)N(CC2CCCO2)c2ccncc2)o1 (stereo unspecified)	0%	-11.14%	-6.03%	2.045%
COc1ccc(C)cc1NC(=O)Nc1cnc(N2CCCC2)nc1	2.348%	-5.081%	5.857%	-1.407%
CCn1c(C)nnc1CN(C)C1CCN(Cc2cnc(C)cn2)C1 (stereo unspecified)	1.844%	6.242%	-10.61%	-3.034%
COCC(=O)N1CCc2nc(C(=O)N(C)C)sc2CC1	5.286%	1.056%	23.68%	-1.728%
Cn1ccnc1C1CCCN(C(=O)c2ccc3nccnc3c2)C1 (stereo unspecified)	1.161%	-2.055%	5.015%	1.948%
Cc1ccc(-c2nc(CN3CCn4c(nnc4C4CC4)C3)cs2)o1	5.419%	13.78%	3.287%	4.759%
CN(Cc1cccnc1)C[C@@H]1OC[C@H]2CN(Cc3ccco3)CC[C@H]21	-2.294%	-4.38%	-20.85%	5.436%
O=C(c1cccnc1N1CCOC(c2ccc(Cl)cc2)C1)N1CCCC1 (stereo unspecified)	-0.854%	-0.3019%	-11.8%	10.04%
CC(C)N(Cc1nccn1C)C(=O)c1cc(Cl)c[nH]c1=O	2.27%	7.969%	4.098%	3.156%
CCC(=O)N(CCN(C)C)Cc1ccc(F)c(F)c1	-2.467%	-6.306%	5.699%	-0.9929%
O=C(NCCN1CCCC1)C1(c2ccc(Cl)cc2)CCOCC1	0.5348%	-29.91%	-7.092%	1.881%
Cc1cn(CC(=O)Nc2cc(C(C)C)nn2C)cn1	-1.127%	-2.75%	-12.28%	-0.08121%
O=C(c1ccc(N2CCCC2)nc1)N1CCCC(n2cncn2)C1 (stereo unspecified)	-7.353%	-30.44%	-7.889%	0.5287%
CCC(C)NC(=O)CS(=O)(=O)Cc1cc(Cl)c2c(c1)OCCCO2 (stereo unspecified)	-5.043%	-19.07%	2.876%	0.4999%

3 of the entries, repeated:

| Compound | MtTrpRS | ClpP1P2 | Pks13 thioesterase | PfKRS1 |
|---|---|---|---|---|
| `CC(C)N(Cc1nccn1C)C(=O)c1cc(Cl)c[nH]c1=O` | 2.27% | 7.969% | 4.098% | 3.156% |
| `COc1ccc(C)cc1NC(=O)Nc1cnc(N2CCCC2)nc1` | 2.348% | -5.081% | 5.857% | -1.407% |
| `Cc1ncc(CN(C)CC(O)c2ccc(OC(F)(F)F)cc2)s1` (stereo unspecified) | -0.1679% | -6.433% | -6.743% | 5.221% |